Values from PubChem BioAssay AID1259254 (NCATS, 2017)

Aim: 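Finding genes that stop cells copying their DNA twice in one cycle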 (primary screen)
Cell system: human HCT116 colorectal cancer cells
Knock-down reagent: single siRNA against human genes
Timing: 3 days
Measurement: 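Nuclei stained with Hoechst and imaged; cell-cycle phase assigned by DNA content; G2 share scaled per plate, non-targeting siRNA 0%, GMNN siRNA 100%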
Direction: G2 robust z-score and G2 cells, % of GMNN control: higher = more G2 cells, more excess DNA replication
Call rule: 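Active siRNAs have a G2 robust z of 5 or more median absolute deviations over the median, which in these data means about 38% or higher of GMNN control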
This is an unselected part of about 59,000 deposited reagents. About 1,550 of all reagents (2.6%) were called active. 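G2 share is only a proxy for re-replication; each gene was hit by three separate siRNAs, and active genes were retested.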 The numbers tell different reagents against one gene apart. Further read-outs or replicates are left out here. No sequences are given here. The record does not give: the amount of reagent.

gene | reagent no. | G2 robust z-score | G2 cells, % of GMNN control | Outcome
MARCHF3 | 1 | 1.71 | 15 | inactive
MARCHF3 | 2 | 2.08 | 17.6 | inactive
MARCHF3 | 3 | -0.654 | -1.64 | inactive
PLAU | 1 | -0.806 | -2.7 | inactive
PLAU | 2 | -0.773 | -2.47 | inactive
PLAU | 3 | 1.07 | 10.5 | inactive
THEM5 | 1 | 0.41 | 5.85 | inactive
THEM5 | 2 | -0.758 | -2.36 | inactive
THEM5 | 3 | 1.12 | 10.8 | inactive
TPCN1 | 1 | -0.381 | 0.289 | inactive
TPCN1 | 2 | -0.19 | 1.63 | inactive
TPCN1 | 3 | -0.285 | 0.962 | inactive
ASB6 | 1 | 0.789 | 8.52 | inactive
ASB6 | 2 | -0.561 | -0.978 | inactive
ASB6 | 3 | -0.682 | -1.83 | inactive
SMTNL1 | 1 | 0.707 | 7.94 | inactive
SMTNL1 | 2 | 0.253 | 4.75 | inactive
SMTNL1 | 3 | 0.913 | 9.39 | inactive
SLC25A38 | 1 | 0.795 | 8.56 | inactive
SLC25A38 | 2 | 3.15 | 25.1 | inactive
SLC25A38 | 3 | -0.438 | -0.117 | inactive
SNCAIP | 1 | -1.22 | -5.65 | inactive
SNCAIP | 2 | -0.507 | -0.597 | inactive
SNCAIP | 3 | -0.102 | 2.25 | inactive
TAMALIN | 1 | 2.65 | 21.6 | inactive
TAMALIN | 2 | 1.62 | 14.3 | inactive
TAMALIN | 3 | -0.146 | 1.94 | inactive
CGAS | 1 | -0.938 | -3.63 | inactive
CGAS | 2 | 7.14 | 53.2 | active
CGAS | 3 | -0.799 | -2.66 | inactive
FNDC11 | 1 | 0.355 | 5.47 | inactive
FNDC11 | 2 | -1.14 | -5.08 | inactive
FNDC11 | 3 | -0.351 | 0.499 | inactive
TMEM120B | 1 | -0.532 | -0.778 | inactive
TMEM120B | 2 | -1.11 | -4.87 | inactive
TMEM120B | 3 | 0.184 | 4.26 | inactive
OR8S1 | 1 | -0.737 | -2.22 | inactive
OR8S1 | 2 | 0.872 | 9.1 | inactive
OR8S1 | 3 | 0.631 | 7.41 | inactive
FDX1 | 1 | -0.265 | 1.11 | inactive
FDX1 | 2 | 1.62 | 14.4 | inactive
FDX1 | 3 | -1.08 | -4.62 | inactive
TRPV5 | 1 | -0.297 | 0.878 | inactive
TRPV5 | 2 | 0.974 | 9.82 | inactive
TRPV5 | 3 | 2.42 | 20 | inactive
PPP2CB | 1 | 1 | 10 | inactive
PPP2CB | 2 | -0.198 | 1.58 | inactive
PPP2CB | 3 | -1.16 | -5.21 | inactive
ZP4 | 1 | -0.362 | 0.42 | inactive
ZP4 | 2 | 1.35 | 12.5 | inactive
ZP4 | 3 | 1.37 | 12.6 | inactive
CEP250 | 1 | 0.132 | 3.9 | inactive
CEP250 | 2 | 2.72 | 22.1 | inactive
CEP250 | 3 | 1.42 | 13 | inactive
PROCR | 1 | 0.609 | 7.25 | inactive
PROCR | 2 | -1.41 | -6.96 | inactive
PROCR | 3 | -1.1 | -4.77 | inactive

5 entries from above, sorted by “G2 cells, % of GMNN control”, ascending:
gene | reagent no. | G2 robust z-score | G2 cells, % of GMNN control | Outcome
PLAU | 2 | -0.773 | -2.47 | inactive
THEM5 | 2 | -0.758 | -2.36 | inactive
THEM5 | 1 | 0.41 | 5.85 | inactive
PLAU | 3 | 1.07 | 10.5 | inactive
THEM5 | 3 | 1.12 | 10.8 | inactive

More reagents follow:
gene | reagent no. | G2 robust z-score | G2 cells, % of GMNN control | Outcome
CCDC196 | 1 | 2.03 | 17.2 | inactive
CCDC196 | 2 | 0.598 | 7.17 | inactive
CCDC196 | 3 | 1.58 | 14.1 | inactive
FOXJ2 | 1 | -1.48 | -7.46 | inactive
FOXJ2 | 2 | 1.21 | 11.5 | inactive
FOXJ2 | 3 | 0.256 | 4.77 | inactive
CDKL4 | 1 | 0.254 | 4.76 | inactive
CDKL4 | 2 | -0.382 | 0.283 | inactive
CDKL4 | 3 | -1.11 | -4.84 | inactive
INCA1 | 1 | 5.34 | 40.5 | active
INCA1 | 2 | -0.325 | 0.679 | inactive
INCA1 | 3 | 1.04 | 10.3 | inactive
NIM1K | 1 | 0.0448 | 3.28 | inactive
NIM1K | 2 | 1.03 | 10.2 | inactive
NIM1K | 3 | 0.113 | 3.76 | inactive
ZBED4 | 1 | -0.269 | 1.07 | inactive
ZBED4 | 2 | 2.87 | 23.1 | inactive
ZBED4 | 3 | 0.765 | 8.35 | inactive
RASA3 | 1 | 0.47 | 6.28 | inactive
RASA3 | 2 | -1.04 | -4.32 | inactive
RASA3 | 3 | -0.389 | 0.23 | inactive
DENND6A | 1 | -0.539 | -0.822 | inactive
DENND6A | 2 | 0.892 | 9.24 | inactive
DENND6A | 3 | -0.783 | -2.54 | inactive
MRPL14 | 1 | -0.73 | -2.17 | inactive
MRPL14 | 2 | -0.802 | -2.68 | inactive
MRPL14 | 3 | -0.779 | -2.51 | inactive
ERICH6 | 1 | -0.226 | 1.38 | inactive
ERICH6 | 2 | 3.16 | 25.2 | inactive
ERICH6 | 3 | -0.688 | -1.87 | inactive
